This is an account of results in paper PMC3070753, “Biochemical and Structural Properties of Cyanases from Arabidopsis thaliana and Oryza sativa” (PLoS ONE, 2011).

These are yes or no findings as the source states them, for the method shown. In cells and extracts the contact can be indirect. Some binding calls cover weakened binding; strength is not graded here. Sequences can lack the tags named with a protein.

In experiment [1] the target is AtCYN, cyanase from Arabidopsis thaliana, HA-tagged and Flag-tagged copies (Arabidopsis thaliana) (UniProt O22683). The experiment can be described thus: co-IP; HA- and Flag-tagged copies co-expressed in N. benthamiana leaves; extract in 50 mM Tris-HCl pH 7.5, 150 mM NaCl, 0.1% Nonidet P-40; anti-HA or anti-FLAG monoclonal antibody with protein G Sepharose, 3 h at 4°C; western blot.

Experiment [2] concerns the target OsCYN, cyanase from Oryza sativa, HA-tagged and Flag-tagged copies (Oryza sativa) (UniProt Q9FWK4). The experiment is described as above.

B1: AtCYN, cyanase from Arabidopsis thaliana, HA-tagged and Flag-tagged copies (enzyme, UniProt O22683 1-168)
chain: MEAAKKQSVTNQLLAVKSASGKTFSQLAAETGLTNVYVAQLLRRQAQLKPDTVPKLKEALPALTDELIGDMMSPPWRSYDPNLIQEPTIYRLNEAVMHFGESIKEIINEDFGDGIMSAIDFYCSVDKIKGVDGNNRVVVTLDGKYLSHSEQRTENMVSRLNLKGGTSE
Regarding B1, in experiment [1], the binding entry is “binds”.

B2: OsCYN, cyanase from Oryza sativa, HA-tagged and Flag-tagged copies (enzyme, UniProt Q9FWK4 1-168)
chain: MEGGGGERAAGVVRRLMAAKAESRKSFSEIGEEAGLTNVYVAQLLRRQAQLKPETAPALRAAVPGLTDDLVALMMEPPFRSYHPDIVHEPAIYRLNEAVMHFGESIKEIINEEFGDGIMSAIDFYCSVDKVQGADGKDRVVVTFDGKYLPYSEQRSDHMMSRLTRKTS
As to B2, the binding result in experiment [2] was “binds”.
